Measured values from PubChem BioAssay (NCATS).
This list was built around the results that the source calls inconclusive (neither active nor inactive); the mix of calls is not that of the screen. Where a call stands in place of a potency, no number is given. Potencies beside an inconclusive call are fits to weak or partial responses and may not hold up. Activity calls are given as the source filed them. Calls follow the shape of the dose curve; as a rule, active = well fitted cell-killing curve with a large enough effect; inconclusive = small, poorly fitted or top-dose-only effect, or effect the other way; inactive = no such curve, though single readings can be large or run the other way.

Assay: Quantitative High-Throughput drug screen in 47 multiple myeloma cell lines against the NCATS MIPE library collection: FR4_PLB cell viability assay (AID 1918924; also: nearly all actives have a fitted effect of over 35% in size)
Conditions: FR4_PLB myeloma cells viability, CellTiter-Glo ATP, 48 h; series mostly up to 45.8 µM
How it was run: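 Luminescent ATP measurement with CellTiter-Glo gives viability, scaled between DMSO-only wells (100%) and media-only wells (0%). Cells, 500 per well, faced library compounds for 48 hours at 37C.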
Potency is read from the fitted curve at half-maximal effect.

| SMILES | Potency |
| --- | --- |
| NC(=O)c1cccnc1 | inactive |
| Nc1ccn(C2CO[C@H](CO)O2)c(=O)n1 (stereo partly drawn) | inactive |
| CC(=O)NCCC(=O)N[C@@H](CCC(N)=O)C(=O)N[C@@H](CO)C(=O)N[C@@H](CCC(N)=O)C(=O)N[C@@H](CCC(N)=O)C(=O)N[C@H](C(=O)N[C@@H](Cc1ccccc1)C(=O)N[C@]1(C)CCCCCCC=CCCC[C@@](C)(C(=O)N[C@@H](CCC(N)=O)C(=O)N[C@@H](CC(N)=O)C(N)=O)NC(=O)[C@H](CC(C)C)NC(=O)[C@H](CC(C)C)NC(=O)[C@@H](CCCNC(=N)N)NC(=O)[C@H](Cc2c[nH]c3ccccc23)NC(=O)[C@H](CC(C)C)NC(=O)[C@H](CC(N)=O)NC1=O)[C@H](C)O | inconclusive: 37.2 µM [cytotoxic, single point] |
| Cc1cnc(NC(=O)C2=C(O)c3ccccc3S(=O)(=O)N2C)s1 | inconclusive: 0.118 µM [rising, full curve, poor fit] |
| COC(=O)N[C@H](C(=O)N[C@@H](Cc1ccccc1)[C@@H](O)CN(Cc1ccc(-c2ccccn2)cc1)NC(=O)[C@@H](NC(=O)OC)C(C)(C)C)C(C)(C)C | inactive |
| C1COC(NC(C2CC2)C2CC2)=N1 | inactive |
| C=C1C(=CC=C2CCCC3(C)[C@@H]([C@H](C)C=CC=CC(O)(CC)CC)CC[C@@H]23)C[C@@H](O)C[C@@H]1O (stereo partly drawn) | inconclusive: 33.2 µM [cytotoxic, single point] |
| CCOC(=O)C(C)Oc1cccc2c(=O)n(CC(=O)Nc3ccc4c(c3)OCCO4)ccc12 (stereo not drawn) | inconclusive: 0.296 µM [cytotoxic, partial curve, poor fit] |
